# Source: article PMC7819943, “Rice protein-binding microarrays: a tool to detect cis-acting elements near promoter regions in rice”
# Sequences of proteins named here, by UniProt entry; tags and fusion partners are left off.
# UniProt Q0JBA9, entry or part of it: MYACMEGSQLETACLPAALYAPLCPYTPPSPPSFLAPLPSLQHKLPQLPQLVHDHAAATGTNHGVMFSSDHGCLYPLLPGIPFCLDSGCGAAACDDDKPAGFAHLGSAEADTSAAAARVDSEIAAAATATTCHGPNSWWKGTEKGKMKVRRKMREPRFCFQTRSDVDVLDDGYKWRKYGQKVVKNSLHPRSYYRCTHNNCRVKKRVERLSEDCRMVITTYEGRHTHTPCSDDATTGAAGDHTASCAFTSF
# This is one part of the list.
# Target: OsWRKY34 (Oryza sativa, UniProt Q0JBA9 1-250)
# Experiment: protein-binding microarray (RPBM); PBS, 2% BSA, 51.3 ng/ul salmon testes DNA, 50 uM zinc acetate, 200 nM TF, 25 C, 1 h; high values mean tight binding
# Settings: protein: recombinant; tags: N-terminal polyhistidine and DsRed monomer fusion (pET32a); label: CyDye5-dUTP incorporated in the synthesized complementary strand; 3' TTTTT single-stranded linker to array surface; dsDNA, one strand shown
# Summary of the method: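 Binding signal is defined as the fluorescence intensity of each feature in arbitrary units, read on an Axon 4000B scanner. Transcription factors with N-terminal polyhistidine and DsRed fusions came from E. coli BL21-CodonPlus and were purified on Ni–NTA. They were incubated at 200 nM for 1 h at 25 °C on a custom Agilent array that had been made double-stranded with Cy5-dUTP, with 50 µM zinc acetate present, and the array was washed.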
row,Sequence,binding signal
1,CATTTGAGTTCAATTTTTCTATGGTTGGTTCTTGTGTGTCCGGAGTCACCTAGTGCAG,9910 fluorescence intensity (a.u.)
2,TCTCGGGTGGGTCTACGGCGCGTTCGTTCTCTCTCCATCCCGGAGTCACCTAGTGCAG,9430 fluorescence intensity (a.u.)
3,CGTTTCTTGGGCCCCGATTTGGGAGGGGTTCTTGGCGATGCGGAGTCACCTAGTGCAG,8900 fluorescence intensity (a.u.)
4,AGCTCTGTATTGCCGTTGCTTTTATTTAAAAGATATTTTTCGGAGTCACCTAGTGCAG,8030 fluorescence intensity (a.u.)
5,GACTCAGATTGGACTTTCTTTCCCCTATTTTCACAGTTGGCGGAGTCACCTAGTGCAG,8940 fluorescence intensity (a.u.)
6,ATTTGATGATCACACACTCATGTATGCATGTTATTAGTATCGGAGTCACCTAGTGCAG,8050 fluorescence intensity (a.u.)
7,GGTTGTGATTGGTTGAGAAGTGGAGGTAGCTGAGAAAATTCGGAGTCACCTAGTGCAG,9420 fluorescence intensity (a.u.)
8,ACTTAGAACTAGGCTATGTTTCATGTCTTTCACTTTGGATCGGAGTCACCTAGTGCAG,9540 fluorescence intensity (a.u.)
9,TTTTTTTGGGCAAGTCTTTTGTCTCTTTAATTGTGTGTTACGGAGTCACCTAGTGCAG,8680 fluorescence intensity (a.u.)
10,TTATTTTGGCCATTTTTTCTTGCGACTTTGTTTTATCAATCGGAGTCACCTAGTGCAG,8070 fluorescence intensity (a.u.)
11,AGGTTTATGTCAGTCGAAGATTCTTCACTGCTACTGCTCTCGGAGTCACCTAGTGCAG,9310 fluorescence intensity (a.u.)
12,TCCACCAATGGCCCTCTTGCCCATTGTTTTCTTCTTGTCCCGGAGTCACCTAGTGCAG,12900 fluorescence intensity (a.u.)
13,ATCTGGACTTTCTCTAGTGCTCAACTGCTGACTCTGTTGACGGAGTCACCTAGTGCAG,9300 fluorescence intensity (a.u.)
14,TTTTAGTTTGCATTCATCTTCCTTTCCGCGAACTCTCACTCGGAGTCACCTAGTGCAG,9860 fluorescence intensity (a.u.)
15,CACATTACACGTTACTAGTAACATGGTGACATACTTTTTCCGGAGTCACCTAGTGCAG,8950 fluorescence intensity (a.u.)
16,AATGGTCTTAGCAGCTAATTACTCTCTACACTAATATGACCGGAGTCACCTAGTGCAG,8980 fluorescence intensity (a.u.)
17,CCCCAGTTTTGCCACCATGCGGTTCATTGTATTGCTACATCGGAGTCACCTAGTGCAG,8780 fluorescence intensity (a.u.)
18,CCCCTCAGTACTCCTGCCTCTGTCCCCATGGCATGTTACACGGAGTCACCTAGTGCAG,10500 fluorescence intensity (a.u.)
19,TTTCATCCAGCTAGCTACTGTATTACCTTAATTTCCTACTCGGAGTCACCTAGTGCAG,10500 fluorescence intensity (a.u.)
20,CCCTCCAGTTTATTGTTTTGCCTATCGATCTCTTGTTGTTCGGAGTCACCTAGTGCAG,13900 fluorescence intensity (a.u.)
21,TTTCATACCTTAATTCTGCATTCCTGGCTAAATTATCTTCCGGAGTCACCTAGTGCAG,8590 fluorescence intensity (a.u.)

row,Sequence,binding signal
1,CTCTAGGAGACACTCGCCACACAGTCTCTAAGCTGTCCCTCGGAGTCACCTAGTGCAG,8140 fluorescence intensity (a.u.)
2,ACCCCATTTTTTTTGAAAATTCTCGAATTTTATTTTTTTTCGGAGTCACCTAGTGCAG,8750 fluorescence intensity (a.u.)
3,CGATTTCCACTTTCGTTTGCTTTCGGGGTTCCAATTTGAGCGGAGTCACCTAGTGCAG,11200 fluorescence intensity (a.u.)
4,TGTTTGTAATAGATTGGTACTTTTGTCGGCCTTGTGAATTCGGAGTCACCTAGTGCAG,8790 fluorescence intensity (a.u.)
5,GCATCGCCCAGCTTTTTTTCATTTTTCTCTGTTTGTTTCGCGGAGTCACCTAGTGCAG,9360 fluorescence intensity (a.u.)
6,AATCTCTCTGTTACTCTCCTACGCGTTTGCTTCAAGCTTTCGGAGTCACCTAGTGCAG,15600 fluorescence intensity (a.u.)
7,ACTAAGTGTGGCTCGTTTTCAGTATTCCTTTCGTTGAATACGGAGTCACCTAGTGCAG,9360 fluorescence intensity (a.u.)
8,CTCTCTCTGCCTTCCTCCTTGACCGATCGCTCCCTTCTGACGGAGTCACCTAGTGCAG,8160 fluorescence intensity (a.u.)
9,CACACACTTCCTCATTCTCGGGGACACGGCCGGTCGCACACGGAGTCACCTAGTGCAG,8560 fluorescence intensity (a.u.)
10,GAGCGGTCCACATATATATTTTGATCATGCATGGTGCATTCGGAGTCACCTAGTGCAG,8130 fluorescence intensity (a.u.)
11,ATCTACACAGCATCGCCGCCGCCGCCGCATCCCCTTTGCACGGAGTCACCTAGTGCAG,9030 fluorescence intensity (a.u.)
12,GAACTGATAAATGATTCGAAACATTTAATAACCAAAGAAACGGAGTCACCTAGTGCAG,8030 fluorescence intensity (a.u.)
13,TCCCACCACCTGCGCCACGCGCGCGCGCGTCCTTCGGGCACGGAGTCACCTAGTGCAG,9000 fluorescence intensity (a.u.)
14,GTCTTCTTTTGAGGTGTGATTATGTTTGAAACTTTTTTTTCGGAGTCACCTAGTGCAG,9080 fluorescence intensity (a.u.)
15,GTTGCCTTGGGTGGGCCGAATTCGCTAACTGGGTATAGGTCGGAGTCACCTAGTGCAG,11100 fluorescence intensity (a.u.)
16,CCAATTTTTTTTTCTCCTTTTGCTTTTTTTCATCAAGAACCGGAGTCACCTAGTGCAG,8740 fluorescence intensity (a.u.)
17,CCATCATATGATCCTATCCGGCGGCCACACTGCAAATCTGCGGAGTCACCTAGTGCAG,8690 fluorescence intensity (a.u.)
18,TTTTTCTCTATAAATTTAGTCAAACATATATAACTTTGACCGGAGTCACCTAGTGCAG,8080 fluorescence intensity (a.u.)
19,CTGGGGAGGGCGACGGCGCAGTGCGGGGTGGACGGGAGCGCGGAGTCACCTAGTGCAG,8270 fluorescence intensity (a.u.)
20,TTGTGTGGGTGATGTGAAGATGCTGGTGAAAGCCTTGCCGCGGAGTCACCTAGTGCAG,8780 fluorescence intensity (a.u.)
21,ATTTAAGGTTTTTCCATCGTAGTTTATTTTTTAGCATTTGCGGAGTCACCTAGTGCAG,8590 fluorescence intensity (a.u.)

# A few values from the results shown:
# Entry for GTTGCCTTGGGTGGGCCGAATTCGCTAACTGGGTATAGGTCGGAGTCACCTAGTGCAG under binding signal: 11100 fluorescence intensity (a.u.)
# Entry for ACCCCATTTTTTTTGAAAATTCTCGAATTTTATTTTTTTTCGGAGTCACCTAGTGCAG under binding signal: 8750 fluorescence intensity (a.u.)
# Entry for ACTTAGAACTAGGCTATGTTTCATGTCTTTCACTTTGGATCGGAGTCACCTAGTGCAG under binding signal: 9540 fluorescence intensity (a.u.)
